Results reported in paper doi:10.1101/390104.
No constants are given. Whether binding was seen depends on the method and setting.

Amino acid sequences for entries named in this document (tags omitted). A change or cut given only in a name is not applied to a line headed by its entry.
UniProt P0AES9, whole entry, looked up, stated change not applied: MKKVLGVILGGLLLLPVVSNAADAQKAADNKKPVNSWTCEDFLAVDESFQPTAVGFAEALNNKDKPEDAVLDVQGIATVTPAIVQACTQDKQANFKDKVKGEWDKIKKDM

How the values were obtained:
[1] = target: HdeA-F28W mutant (E. coli) (UniProt P0AES9); test: SEC
[2] = target: HdeA-F28W mutant (E. coli) (UniProt P0AES9); test: NMR

binding [1]: no binding
binding [2]: no binding
Substance: HdeA-F28W mutant (from UniProt P0AES9 22-110)
